Measurements taken from PMC4598080.
No constants are given. Whether binding was seen depends on the method and setting. Where a sequence is shown, tags or fusion partners need not be part of it.

Molecular target: Rpl4.N104 fused to the C-terminal Gal4 DNA-binding domain (S. cerevisiae)
Assay: two-hybrid; Rpl4a variants fused to G4BD (bait) and Acl4 fused to G4AD (prey) in reporter strain PJ69-4A; growth on SC-His-Leu-Trp (HIS3) and SC-Ade-Leu-Trp (ADE2) plates, 3 d at 30°C

- binding: no binding
B1: full-length Acl4 fused to the C-terminal Gal4 activation domain (protein, UniProt Q03771 1-387)
chain: MSELEATIRQAKEALAENNAKKALKILKPFKSSLKKENANNVILNEVFADAYLDNGQVEKAYPILARACELDPEGQVGGPDKFFTMGQIMGGQDGVSIITRGIMNISNTGGEMLTNVQVEKIVGGLLSVIEIWMTDLCMEPNAEEQCEELIQKAMELTEGKSPETWSTLGSIKISQQKFGEAYEAFSQAWNFFELKKQEIGSGINENGDTTQKAGLQSEYVDLLQPLLSLTKMCLEVGAYEVALKVIAAVRDIDEDNIEGYYLEGFTYYLMSKLEIFKLNNPEVSLRPENIYEFNQLIQEVPLDLSHEPISQLIYDSRLALSFALQAGVNADSKDEIVQELLGGANALLQEIGGPLDPSELTQIKKGDLVNENEDLEELDIEEEYSD
